Measured values taken from the supplement of paper PMC10849652.
The list shows a part of the results.

The chains behind the UniProt entries cited, without tags or fusion partners. Where a name states a change or a piece, a line headed by the entry shows the natural chain unless it says otherwise.
UniProt O60921: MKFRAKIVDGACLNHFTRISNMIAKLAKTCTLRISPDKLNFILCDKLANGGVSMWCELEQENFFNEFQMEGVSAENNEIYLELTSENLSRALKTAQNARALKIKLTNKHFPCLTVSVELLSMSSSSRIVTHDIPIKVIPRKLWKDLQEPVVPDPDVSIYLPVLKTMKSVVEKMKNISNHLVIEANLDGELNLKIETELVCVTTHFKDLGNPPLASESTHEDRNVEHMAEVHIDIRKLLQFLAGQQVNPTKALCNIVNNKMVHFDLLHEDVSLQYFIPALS
UniProt Q8WYH8, whole entry, looked up: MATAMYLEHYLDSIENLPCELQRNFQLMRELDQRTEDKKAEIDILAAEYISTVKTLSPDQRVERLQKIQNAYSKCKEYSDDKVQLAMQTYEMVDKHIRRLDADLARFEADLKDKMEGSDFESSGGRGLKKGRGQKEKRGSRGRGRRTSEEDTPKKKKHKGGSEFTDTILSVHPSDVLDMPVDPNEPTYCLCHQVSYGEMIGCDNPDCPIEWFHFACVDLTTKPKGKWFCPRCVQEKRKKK
UniProt P58166: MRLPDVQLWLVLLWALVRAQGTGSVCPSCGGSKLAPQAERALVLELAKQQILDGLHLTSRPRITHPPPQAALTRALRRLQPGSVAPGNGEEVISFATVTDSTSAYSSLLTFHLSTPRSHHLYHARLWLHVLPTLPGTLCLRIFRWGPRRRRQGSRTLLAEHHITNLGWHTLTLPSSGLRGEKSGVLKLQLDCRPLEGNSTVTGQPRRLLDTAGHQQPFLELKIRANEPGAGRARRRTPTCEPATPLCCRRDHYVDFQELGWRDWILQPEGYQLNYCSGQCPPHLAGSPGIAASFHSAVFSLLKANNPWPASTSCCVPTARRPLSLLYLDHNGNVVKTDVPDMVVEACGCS
UniProt Q9H0C8: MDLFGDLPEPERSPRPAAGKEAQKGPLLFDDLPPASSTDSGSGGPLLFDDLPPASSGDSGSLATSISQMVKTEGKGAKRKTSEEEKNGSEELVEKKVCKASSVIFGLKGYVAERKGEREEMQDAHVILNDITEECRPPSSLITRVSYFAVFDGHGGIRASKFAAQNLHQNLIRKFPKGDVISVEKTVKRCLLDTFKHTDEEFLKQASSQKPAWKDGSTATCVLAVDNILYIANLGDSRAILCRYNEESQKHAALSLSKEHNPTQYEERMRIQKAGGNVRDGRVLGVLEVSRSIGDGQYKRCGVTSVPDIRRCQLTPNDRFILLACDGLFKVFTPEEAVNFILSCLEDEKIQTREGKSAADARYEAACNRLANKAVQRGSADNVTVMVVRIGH
UniProt Q9Y2H2: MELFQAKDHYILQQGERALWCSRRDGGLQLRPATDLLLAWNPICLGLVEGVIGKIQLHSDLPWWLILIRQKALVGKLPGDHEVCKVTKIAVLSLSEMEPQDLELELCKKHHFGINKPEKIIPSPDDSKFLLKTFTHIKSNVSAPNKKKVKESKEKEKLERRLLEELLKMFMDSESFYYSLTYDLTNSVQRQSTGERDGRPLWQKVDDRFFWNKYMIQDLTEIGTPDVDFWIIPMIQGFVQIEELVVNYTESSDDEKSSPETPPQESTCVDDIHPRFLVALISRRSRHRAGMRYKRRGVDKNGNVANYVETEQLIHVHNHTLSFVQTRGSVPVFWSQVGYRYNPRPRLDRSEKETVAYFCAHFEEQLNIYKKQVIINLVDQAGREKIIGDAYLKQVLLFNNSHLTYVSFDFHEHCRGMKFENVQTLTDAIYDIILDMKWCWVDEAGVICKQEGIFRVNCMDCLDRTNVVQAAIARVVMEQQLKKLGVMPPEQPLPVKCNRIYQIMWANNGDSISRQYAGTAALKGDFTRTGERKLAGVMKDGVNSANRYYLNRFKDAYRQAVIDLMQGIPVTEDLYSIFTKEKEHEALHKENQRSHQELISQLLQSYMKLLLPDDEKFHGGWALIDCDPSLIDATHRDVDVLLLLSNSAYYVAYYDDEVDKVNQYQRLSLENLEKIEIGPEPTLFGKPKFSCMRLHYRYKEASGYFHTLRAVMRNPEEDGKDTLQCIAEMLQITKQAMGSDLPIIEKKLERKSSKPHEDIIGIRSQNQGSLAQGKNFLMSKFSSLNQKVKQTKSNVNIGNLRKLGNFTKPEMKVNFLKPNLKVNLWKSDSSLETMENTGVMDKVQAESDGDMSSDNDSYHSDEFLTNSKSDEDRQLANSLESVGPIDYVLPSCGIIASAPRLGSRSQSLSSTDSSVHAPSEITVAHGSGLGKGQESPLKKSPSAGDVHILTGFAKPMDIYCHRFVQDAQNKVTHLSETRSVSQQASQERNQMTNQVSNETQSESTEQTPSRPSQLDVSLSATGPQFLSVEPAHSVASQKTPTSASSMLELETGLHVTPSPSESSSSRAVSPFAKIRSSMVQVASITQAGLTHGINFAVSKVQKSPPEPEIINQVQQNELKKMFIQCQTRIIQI
UniProt P01876, whole entry, looked up: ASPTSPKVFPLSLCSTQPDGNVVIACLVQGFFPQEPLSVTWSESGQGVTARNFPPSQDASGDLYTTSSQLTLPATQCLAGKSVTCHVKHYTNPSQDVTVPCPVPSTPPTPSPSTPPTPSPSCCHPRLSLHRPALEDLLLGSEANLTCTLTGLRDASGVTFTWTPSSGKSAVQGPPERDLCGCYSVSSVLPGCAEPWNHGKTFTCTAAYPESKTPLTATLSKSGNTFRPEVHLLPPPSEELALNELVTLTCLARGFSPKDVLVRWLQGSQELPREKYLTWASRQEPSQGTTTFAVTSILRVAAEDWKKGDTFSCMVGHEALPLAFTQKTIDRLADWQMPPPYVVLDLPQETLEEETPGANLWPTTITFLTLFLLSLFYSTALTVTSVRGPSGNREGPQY
UniProt Q92835: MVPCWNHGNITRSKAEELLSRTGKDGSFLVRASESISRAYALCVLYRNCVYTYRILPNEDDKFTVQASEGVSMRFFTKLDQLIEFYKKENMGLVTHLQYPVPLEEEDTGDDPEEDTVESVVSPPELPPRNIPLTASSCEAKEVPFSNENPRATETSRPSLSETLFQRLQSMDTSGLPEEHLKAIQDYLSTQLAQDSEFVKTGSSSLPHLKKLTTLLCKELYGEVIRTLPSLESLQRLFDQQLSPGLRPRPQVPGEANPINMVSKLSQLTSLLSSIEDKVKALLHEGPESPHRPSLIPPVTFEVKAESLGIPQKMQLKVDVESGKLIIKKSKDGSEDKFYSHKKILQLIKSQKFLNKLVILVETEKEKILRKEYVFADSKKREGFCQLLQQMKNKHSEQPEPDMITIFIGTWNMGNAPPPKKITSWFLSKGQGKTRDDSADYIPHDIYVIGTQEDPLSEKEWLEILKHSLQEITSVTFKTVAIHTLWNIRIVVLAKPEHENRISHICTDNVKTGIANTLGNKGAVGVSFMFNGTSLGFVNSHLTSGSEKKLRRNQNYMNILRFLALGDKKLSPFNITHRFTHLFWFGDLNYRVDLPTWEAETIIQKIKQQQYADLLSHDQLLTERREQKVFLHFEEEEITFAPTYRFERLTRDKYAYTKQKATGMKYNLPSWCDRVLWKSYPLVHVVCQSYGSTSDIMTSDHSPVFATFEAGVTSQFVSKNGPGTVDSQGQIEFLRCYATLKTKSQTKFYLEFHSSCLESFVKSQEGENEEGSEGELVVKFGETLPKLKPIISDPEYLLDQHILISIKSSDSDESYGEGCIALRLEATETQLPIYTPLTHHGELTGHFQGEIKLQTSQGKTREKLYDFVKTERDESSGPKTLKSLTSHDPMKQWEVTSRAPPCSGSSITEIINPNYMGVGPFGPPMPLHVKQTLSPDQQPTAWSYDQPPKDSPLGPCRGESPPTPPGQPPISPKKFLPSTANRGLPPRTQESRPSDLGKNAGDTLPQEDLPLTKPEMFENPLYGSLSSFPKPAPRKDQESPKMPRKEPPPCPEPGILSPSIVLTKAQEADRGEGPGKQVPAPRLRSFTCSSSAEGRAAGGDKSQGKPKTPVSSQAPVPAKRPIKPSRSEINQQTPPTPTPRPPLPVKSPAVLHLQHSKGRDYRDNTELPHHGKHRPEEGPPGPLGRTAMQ
UniProt Q9H6K1: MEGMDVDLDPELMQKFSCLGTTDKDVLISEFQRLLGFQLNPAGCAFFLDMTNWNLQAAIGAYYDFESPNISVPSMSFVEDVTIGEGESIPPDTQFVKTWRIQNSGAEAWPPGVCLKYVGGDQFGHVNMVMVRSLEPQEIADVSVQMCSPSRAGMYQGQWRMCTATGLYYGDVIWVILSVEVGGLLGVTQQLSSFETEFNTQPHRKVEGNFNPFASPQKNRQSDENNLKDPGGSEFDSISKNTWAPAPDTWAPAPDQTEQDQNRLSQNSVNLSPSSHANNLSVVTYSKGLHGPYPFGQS
UniProt Q9Y366: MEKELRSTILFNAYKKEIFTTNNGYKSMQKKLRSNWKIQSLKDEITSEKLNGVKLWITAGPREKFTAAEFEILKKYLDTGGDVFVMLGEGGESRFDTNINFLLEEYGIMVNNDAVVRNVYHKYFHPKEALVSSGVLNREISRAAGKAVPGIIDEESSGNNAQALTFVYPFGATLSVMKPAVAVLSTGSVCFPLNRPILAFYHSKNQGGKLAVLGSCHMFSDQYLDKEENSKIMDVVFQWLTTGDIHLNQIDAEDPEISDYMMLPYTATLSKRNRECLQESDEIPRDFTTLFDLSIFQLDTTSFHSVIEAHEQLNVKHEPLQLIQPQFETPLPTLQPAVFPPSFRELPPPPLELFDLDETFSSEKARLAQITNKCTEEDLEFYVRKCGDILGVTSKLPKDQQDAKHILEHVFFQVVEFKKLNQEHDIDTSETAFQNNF
UniProt Q08334: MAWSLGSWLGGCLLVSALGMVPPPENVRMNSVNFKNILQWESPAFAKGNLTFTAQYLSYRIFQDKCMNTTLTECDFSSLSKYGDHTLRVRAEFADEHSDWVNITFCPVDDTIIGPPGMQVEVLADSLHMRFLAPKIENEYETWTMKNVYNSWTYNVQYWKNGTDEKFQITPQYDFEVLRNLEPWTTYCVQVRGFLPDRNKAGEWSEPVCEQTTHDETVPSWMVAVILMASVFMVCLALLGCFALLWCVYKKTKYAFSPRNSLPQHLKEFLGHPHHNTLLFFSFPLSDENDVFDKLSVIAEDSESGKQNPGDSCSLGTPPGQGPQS
UniProt P41252: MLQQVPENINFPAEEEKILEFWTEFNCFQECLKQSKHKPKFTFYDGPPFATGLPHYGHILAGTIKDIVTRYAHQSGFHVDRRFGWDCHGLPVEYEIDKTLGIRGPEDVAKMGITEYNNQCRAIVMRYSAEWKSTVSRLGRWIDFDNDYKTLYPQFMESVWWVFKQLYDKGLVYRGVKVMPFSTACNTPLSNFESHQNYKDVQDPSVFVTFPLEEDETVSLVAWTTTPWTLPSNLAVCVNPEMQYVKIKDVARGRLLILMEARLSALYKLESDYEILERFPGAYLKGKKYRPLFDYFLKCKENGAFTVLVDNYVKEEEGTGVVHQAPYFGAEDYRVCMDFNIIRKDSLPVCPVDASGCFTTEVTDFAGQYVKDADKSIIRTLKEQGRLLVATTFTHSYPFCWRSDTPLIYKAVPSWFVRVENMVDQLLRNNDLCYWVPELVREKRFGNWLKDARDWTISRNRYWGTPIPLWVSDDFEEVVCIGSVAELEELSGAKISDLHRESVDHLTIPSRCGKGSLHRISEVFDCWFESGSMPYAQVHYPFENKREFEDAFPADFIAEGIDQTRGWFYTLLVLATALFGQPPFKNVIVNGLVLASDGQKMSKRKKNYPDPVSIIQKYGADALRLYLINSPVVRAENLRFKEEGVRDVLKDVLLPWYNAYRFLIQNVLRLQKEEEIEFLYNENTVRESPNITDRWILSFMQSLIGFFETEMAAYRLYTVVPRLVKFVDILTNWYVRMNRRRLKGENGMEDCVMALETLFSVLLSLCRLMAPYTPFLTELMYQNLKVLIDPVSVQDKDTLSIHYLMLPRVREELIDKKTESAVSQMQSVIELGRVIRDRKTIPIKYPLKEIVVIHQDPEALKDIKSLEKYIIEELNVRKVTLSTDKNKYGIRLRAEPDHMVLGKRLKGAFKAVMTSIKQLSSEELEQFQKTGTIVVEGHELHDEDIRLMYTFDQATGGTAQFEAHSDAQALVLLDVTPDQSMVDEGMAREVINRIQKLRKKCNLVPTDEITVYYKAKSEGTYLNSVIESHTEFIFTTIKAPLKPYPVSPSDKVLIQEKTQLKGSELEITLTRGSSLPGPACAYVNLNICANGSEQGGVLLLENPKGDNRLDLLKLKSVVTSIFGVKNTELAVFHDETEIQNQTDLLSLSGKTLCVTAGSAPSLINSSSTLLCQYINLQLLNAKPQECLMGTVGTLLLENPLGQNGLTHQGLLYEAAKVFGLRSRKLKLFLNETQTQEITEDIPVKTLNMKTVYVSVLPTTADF
UniProt Q96LU5: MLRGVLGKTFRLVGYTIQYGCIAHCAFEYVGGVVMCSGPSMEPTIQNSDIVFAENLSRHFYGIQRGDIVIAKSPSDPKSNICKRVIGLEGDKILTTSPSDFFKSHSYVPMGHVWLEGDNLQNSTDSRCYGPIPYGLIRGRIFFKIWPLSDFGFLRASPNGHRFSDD
UniProt Q9NRY2: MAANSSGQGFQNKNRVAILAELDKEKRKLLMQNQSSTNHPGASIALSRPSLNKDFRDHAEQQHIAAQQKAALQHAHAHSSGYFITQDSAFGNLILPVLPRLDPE

Key:
Test in all cases: log2 fold change, soluble protein after heating vs DMSO (PISA); higher = thermal stabilisation; K562 lysate, 10 uM; active = over 0.2 and 3.5 SD of the protein, either way, in both replicates (recomputed)
erlotinib = compound: C#Cc1cccc(Nc2ncnc3cc(OCCOC)c(OCCOC)cc23)c1 [erlotinib]
Summary of the method: (§1)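 Pellets of K562 cells were dounce-homogenised in PBS pH 7.4 with 1 mM MgCl2, and the crude extract was held at 1 mg/mL protein for a 30 min treatment with 10 μM compound. Aliquots were heated for 3 min over 48°C-58°C and pooled before NP-40 was added to 0.5% at 4°C. The supernatant from 21,000xg for 90 min was quantified by TMTpro 16plex LC-MS/MS with channel sums equalised. Values are reported from duplicates as log-two fold change in thermal stability relative to solvent controls.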

[1] = compound: C/C(=N\NC(=O)C1=CC(=CC=C1)S(=O)(=O)N2CCOCC2)/C3=C(C=CC(=C3)Cl)O
Summary of the method: as §1

[2] = compound: C1=CC(=CC=C1C2=NC3=C(N2)C=C(C=C3)C(=O)N)OC4=CC=C(C=C4)Cl
Summary of the method: as §1

[3] = compound: C1=CC2=C(C=CC(=C2)/C=C\3/C(=O)NC(=NCC4=CC=CS4)S3)N=C1
Summary of the method: as §1

[4] = compound: C1=CC2=NC=CN=C2C=C1/C=C/3\C(=O)NC(=O)S3
Summary of the method: as §1

[5] = compound: C1=CC=C(C=C1)C2=NC(=C(N2)C3=CC=NC=C3)C4=CC(=C(C=C4)Cl)O
Summary of the method: as §1

[6] = compound: C1=CC=C2C(=C1)C3=NNC4=CC=CC(=C43)C2=O
Summary of the method: as §1

[7] = compound: C1CCN(C1)C(=O)NC2=CC=CC(=C2)NC3=NC=C(C(=N3)NCCC4=CN=CN4)Br
Summary of the method: as §1

[8] = compound: C1CN(CCC1(CC2=CC=C(C=C2)Cl)N)C3=NC=NC4=C3C=CN4
Summary of the method: as §1

IRAK-1-4 Inhibitor I = compound: C1COCCN1CCN2C3=CC=CC=C3N=C2NC(=O)C4=CC(=CC=C4)[N+](=O)[O-] [IRAK-1-4 Inhibitor I]
Summary of the method: as §1

Measured: log2 fold change

IGSF8 (UniProt Q969P0)
inactive: erlotinib -0.008 | [1] -0.023 | [2] 0.043 | [3] 0.011 | [4] -0.042 | [5] -0.003 | [6] 0.004 | [7] -0.018 | [8] -0.046 | IRAK-1-4 Inhibitor I 0.107

IMPDH1 isoform 6 (UniProt P20839)
inactive: erlotinib 0.018 | [1] 0.036 | [2] -0.031 | [3] 0.009 | [4] -0.001 | [5] -0.001 | [6] 0.017 | [7] 0.028 | [8] 0.032 | IRAK-1-4 Inhibitor I 0.003

HSPG2 (UniProt P98160)
inactive: erlotinib -0.024 | [1] 0.026 | [2] 0.008 | [3] -0.015 | [4] -0.005 | [5] 0.003 | [6] -0.037 | [7] -0.008 | [8] 0.03 | IRAK-1-4 Inhibitor I 0.001

ILF3 (UniProt Q12906)
inactive: erlotinib -0.007 | [1] -0.264 | [2] 0.019 | [3] 0.091 | [4] 0.06 | [6] 0.123 | [7] 0.011 | [8] 0.143

HSPA8 (UniProt P11142)
inactive: erlotinib -0.022 | [1] 0.003 | [2] 0.008 | [3] 0.002 | [4] -0.028 | [5] -0.004 | [6] 0.038 | [7] 0.016 | [8] -0.009 | IRAK-1-4 Inhibitor I -0.008

HUS1 (UniProt O60921)
inactive: erlotinib 0.023 | [1] 0.005 | [2] 0.04 | [3] 0.006 | [4] 0.024 | [5] -0.027 | [6] -0.018 | [7] 0.006 | [8] -0.016 | IRAK-1-4 Inhibitor I 0.011

HYOU1 (UniProt J3QL06)
inactive: erlotinib -0.067 | [1] 0.473 | [2] -0.074 | [3] -0.088 | [5] 0.12 | [6] 0.052 | [7] -0.165 | [8] -0.013 | IRAK-1-4 Inhibitor I -0.162

INO80B (UniProt Q9C086)
inactive: erlotinib 0.093 | [2] -0.064

IFT172 (UniProt Q9UG01)
inactive: erlotinib 0.119 | [1] 0.082 | [2] 0.031 | [3] -0.065 | [5] -0.002 | [6] -0.161 | IRAK-1-4 Inhibitor I 0.471

ING5 (UniProt Q8WYH8)
inactive: erlotinib 0.081 | [2] -0.021 | [4] 0.044 | [5] 0.068 | [7] -0.041 | [8] -0.068 | IRAK-1-4 Inhibitor I 0.125

INHBE (UniProt P58166)
inactive: erlotinib -0.034 | [2] 0.084

ILKAP (UniProt Q9H0C8)
inactive: erlotinib -0.042 | [1] -0.01 | [2] -0.007 | [3] 0.027 | [4] -0.021 | [5] -0.005 | [6] 0.015 | [7] -0.022 | [8] -0.043 | IRAK-1-4 Inhibitor I 0.004

INPP5F (UniProt Q9Y2H2)
inactive: erlotinib 0.045 | [1] 0.014 | [2] 0.196 | [3] 0.002 | [4] -0.198 | [5] 0.167 | [6] -0.166 | [7] -0.101 | [8] 0.297 | IRAK-1-4 Inhibitor I 0.169

INO80E (UniProt Q8NBZ0)
inactive: erlotinib 0.008 | [2] 0.072 | [4] 0.175 | [5] 0.166 | [7] 0.02 | [8] 0.088 | IRAK-1-4 Inhibitor I -0.111

IGHA1 (UniProt P01876)
inactive: erlotinib -0.293 | [1] 1.27 | [2] -0.219 | [3] -0.029 | [4] 0.232 | [5] -0.071 | [6] -0.168 | [7] 0.173 | [8] -0.595 | IRAK-1-4 Inhibitor I -0.64

INPP5D (UniProt Q92835)
inactive: erlotinib -0.044 | [2] 0

ILRUN (UniProt Q9H6K1)
inactive: erlotinib -0.004 | [1] 0.056 | [2] 0.004 | [3] -0.018 | [4] 0.016 | [5] 0.018 | [6] 0.011 | [7] 0.006 | [8] 0.033 | IRAK-1-4 Inhibitor I 0.02

IFT52 (UniProt Q9Y366)
inactive: erlotinib -0.109 | [2] 0.359

IFT43 (UniProt Q96FT9)
inactive: erlotinib 0.106 | [1] -0.147 | [2] -0.318 | [3] -0.384 | [4] -0.141 | [5] -0.129 | [6] -0.046 | IRAK-1-4 Inhibitor I -0.31

HSPBAP1 (UniProt Q96EW2)
inactive: erlotinib 0.064 | [2] -0.098 | [4] -0.079 | [5] -0.072 | [7] 0.002 | [8] 0.031 | IRAK-1-4 Inhibitor I -0.002

IMMT (UniProt Q16891)
inactive: erlotinib 0.008 | [1] 0.058 | [2] -0.176 | [3] 0.035 | [4] 0.024 | [5] -0.001 | [6] -0.031 | [7] 0.016 | [8] -0.026 | IRAK-1-4 Inhibitor I -0.007

HSPA8 (UniProt E9PK54)
inactive: erlotinib 0.045 | [1] -0.222 | [2] -0.045 | [3] -0.099 | [4] 0.014 | [5] -0.044 | [6] 0 | [7] -0.043 | [8] -0.008 | IRAK-1-4 Inhibitor I -0.141

IL27RA (UniProt Q6UWB1)
inactive: erlotinib -0.131 | [2] -0.424 | [4] -0.161 | [5] 0.024 | [7] -0.023 | [8] -0.064 | IRAK-1-4 Inhibitor I -0.042

IL10RB (UniProt Q08334)
inactive: erlotinib 0.021 | [1] 0.259 | [2] -0.08 | [3] -0.083 | [5] 0.098 | [6] -0.046 | [7] 0.056 | [8] -0.004 | IRAK-1-4 Inhibitor I -0.007

HYKK (UniProt A2RU49)
inactive: erlotinib 0.134 | [2] -0.225 | [4] -0.107 | [5] 0.057 | [7] -0.089 | [8] 0.223 | IRAK-1-4 Inhibitor I -0.051

IARS (UniProt P41252)
inactive: erlotinib 0.022 | [1] 0.061 | [2] -0.011 | [3] 0.013 | [4] 0.02 | [5] 0.006 | [6] -0.035 | [7] 0.006 | [8] 0.01 | IRAK-1-4 Inhibitor I -0.006

IMMP1L (UniProt Q96LU5)
inactive: erlotinib -0.019 | [2] 0.006 | [4] -0.096 | [5] -0.007 | [7] 0.044 | [8] -0.06 | IRAK-1-4 Inhibitor I -0.008

Taken from the entries so far (2 entries):
IMMT (UniProt Q16891)
inactive: erlotinib 0.008 | [1] 0.058 | [2] -0.176 | [3] 0.035 | [4] 0.024 | [5] -0.001 | [6] -0.031 | [7] 0.016 | [8] -0.026 | IRAK-1-4 Inhibitor I -0.007

HSPA8 (UniProt E9PK54)
inactive: erlotinib 0.045 | [1] -0.222 | [2] -0.045 | [3] -0.099 | [4] 0.014 | [5] -0.044 | [6] 0 | [7] -0.043 | [8] -0.008 | IRAK-1-4 Inhibitor I -0.141

Remaining list, next part.

INPP5E (UniProt Q9NRR6)
inactive: erlotinib 0.118 | [2] 0.136

IFITM3 (UniProt Q01628)
inactive: erlotinib -0.136 | [1] -0.11 | [2] 0.062 | [3] 0.004 | [4] -0.094 | [5] -0.122 | [6] 0.084 | [7] -0.095 | [8] -0.069 | IRAK-1-4 Inhibitor I -0.026

INIP (UniProt Q9NRY2)
inactive: erlotinib 0.075 | [1] 0.051 | [2] -0.116 | [3] -0.178 | [5] -0.088 | [6] -0.245 | IRAK-1-4 Inhibitor I -0.001
